Reference: patent US20200000772A1, “CENICRIVIROC COMBINATION THERAPY FOR THE TREATMENT OF FIBROSIS” (Tobira Therapeutics, Inc., priority 2014, published 2020)
Some entries share one result that the patent states for a list of compounds. At least one structure is not confirmed: it was looked up by name or label, or the drawing left a doubt.

Assay: Phase 1 CVC and pioglitazone co-administration PK and safety study
Format: in vivo, healthy subjects
Details: CVC 150 mg QD and PGZ 45 mg QD; for GMRs of steady-state PK parameters, co-administered vs alone: 10 days, healthy subjects
Method: Plasma samples were collected prior to each dose and over 24 hours at the end of each treatment period. Cmax, Cmin, tmax, and AUC0-tau were determined using non-compartmental methods. Geometric means, GMRs and CIs were calculated.

| SMILES | GMRs of steady-state PK parameters, co-administered vs alone | 90% CI for systemic exposure ratios on co-administration, all three PK parameters (PGZ metabolites) |
| --- | --- | --- |
| CCc1ccc(CCOc2ccc(CC3SC(=O)NC3=O)cc2)nc1 (stereo not drawn) [PGZ, Pioglitazone, reference compound] | ≥ 0.80 | – |
| CCCCOCCOc1ccc(-c2ccc3c(c2)/C=C(/C(=O)Nc2ccc([S@@+]([O-])Cc4cncn4CCC)cc2)CCCN3CC(C)C)cc1 [CVC, (S)-8-[4-(2-Butoxyethoxy)phenyl]-1-isobutyl-N-(4-{[(1-propyl-1H-imidazol-5-yl)methyl]sulfinyl}phenyl)-1,2,3,4-tetrahydro-1-benzazocine-5-carboxamide] | ≥ 0.80 | – |
| CC(O)c1ccc(CCOc2ccc(CC3SC(=O)NC3=O)cc2)nc1 (stereo not drawn) [M-IV] | – | 0.80-1.25 |
